The assay relates to S. aureus TISTR 517. Nature of the assay: microbe, parasite or virus in culture. The class given is cell-based. The note with it: Staphylococcus aureus, TISTR517, 24 h, read-out: MIC, S. aureus TISTR 517. How it is done:
A bacterial suspension was prepared by adjusting its turbidity at OD 625 nm to 0.1 and subsequently made a 20-fold dilution using Cation-Adjusted Mueller–Hinton broth (CAHMB) as a diluent. […] The diluted cell suspension (10 µL) was added to each well, and the plates were incubated at 37 °C for 24 h. The CAMHB alone was used as a negative control, while CAMHB containing colistin or vancomycin served as a positive control.

≈ marks a conversion by molar mass, not a printed value.

For the compound `CN[C@H](CC(C)C)C(=O)N[C@H]1C(=O)N[C@@H](CC(N)=O)C(=O)N[C@H]2C(=O)N[C@H]3C(=O)N[C@H](C(=O)N[C@H](C(=O)O)c4cc(O)cc(O)c4-c4cc3ccc4O)[C@H](O)c3ccc(c(Cl)c3)Oc3cc2cc(c3O[C@@H]2O[C@H](CO)[C@@H](O)[C@H](O)[C@H]2O[C@H]2C[C@](C)(N)[C@H](O)[C@H](C)O2)Oc2ccc(cc2Cl)[C@H]1O` [Vancomycin], the MIC came to 2 µg/mL (≈ 1.38 µM).

Values taken from article PMC12383022, “Discovery of a Novel Antimicrobial Peptide from Paenibacillus sp. Na14 with Potent Activity Against Gram-Negative Bacteria and Genomic Insights into Its Biosynthetic Pathway” (Antibiotics, 2025).
